Article PMC4627819, “Bacillus subtilis Bactofilins Are Essential for Flagellar Hook- and Filament Assembly and Dynamically Localize into Structures of Less than 100 nm Diameter underneath the Cell Membrane” (PLoS ONE, 2015)
These are yes or no findings as the source states them, for the method shown. Binding seen in cells or lysates may run through a third protein. Some binding calls cover weakened binding; strength is not graded here. Sequences can lack the tags named with a protein. Values belong to the binder of their own block, whether it stands above or below them.

Experiments:
[1] = molecular target: T1, BacE carrying a hexa-histidine tag (his6-yhbE) (Bacillus subtilis) (UniProt P39132); assay: pull-down; co-purification on a Ni-NTA column from E. coli cells coexpressing one hexa-histidine-tagged and one untagged bactofilin; eluates on Coomassie-stained SDS-PAGE
T1 sequence: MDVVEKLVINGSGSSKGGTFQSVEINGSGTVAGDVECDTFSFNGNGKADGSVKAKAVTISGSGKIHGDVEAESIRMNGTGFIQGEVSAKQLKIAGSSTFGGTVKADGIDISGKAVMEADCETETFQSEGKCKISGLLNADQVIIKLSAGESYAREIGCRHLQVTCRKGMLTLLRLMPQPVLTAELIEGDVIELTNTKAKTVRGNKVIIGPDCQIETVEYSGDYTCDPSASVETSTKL

[2] = molecular target: T2, BacF carrying a hexa-histidine tag (6-His-BacF) (Bacillus subtilis) (UniProt P39133); assay: as above
T2 sequence: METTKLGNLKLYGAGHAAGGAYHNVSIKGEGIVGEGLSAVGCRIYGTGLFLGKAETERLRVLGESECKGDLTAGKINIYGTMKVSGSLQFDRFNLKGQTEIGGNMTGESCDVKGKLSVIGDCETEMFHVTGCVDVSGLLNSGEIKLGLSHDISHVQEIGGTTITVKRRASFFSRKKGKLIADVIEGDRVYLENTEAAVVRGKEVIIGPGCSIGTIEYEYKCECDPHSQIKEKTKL

binding [1]: binds
B1: BacF carrying a hexa-histidine tag (6-His-BacF) (natural protein, Bacillus subtilis, UniProt P39133 1-235, looked up)
chain: T2 sequence
notes: Bactofilin BacF, product of yhbF, Bacillus subtilis; full-length yhbF cloned into pET16b or pET24d; also called YhbF; his6-yhbF; source: E. coli BL21 (DE3); also coexpressed with untagged BacE, in cell extract

binding [2]: binds
B2: BacE carrying a hexa-histidine tag (his6-yhbE) (natural protein, Bacillus subtilis, UniProt P39132 1-237, looked up)
chain: T1 sequence
notes: Bactofilin BacE, product of yhbE, Bacillus subtilis; full-length yhbE cloned into pET16b or pET24d; source: E. coli BL21 (DE3); also coexpressed with untagged BacF, in cell extract
